Measurements from patent publication US20250304933A1, “INDUCIBLE RECOMBINASE SYSTEMS” (priority 2022, published 2025).
At least one structure is not confirmed: it was looked up by name or label, or the drawing left a doubt.

Tested on: NFkB
Assay: NFkB DNA accessibility by single-cell ATAC-sequencing in MF patient HSPCs
Details: human data, Jak2^V617F mutant HSPCs of MF patients

How did the “NFkB accessibility in the setting of ruxolitinib therapy” value turn out when N#CC[C@H](C1CCCC1)n1cc(-c2ncnc3[nH]ccc23)cn1 [ruxolitinib] was run?
The value was “increased”.
